In patent publication US20110136791A1, “COMBINATION OF A NICOTINIC RECEPTOR PARTIAL AGONIST AND OF AN ACETYLCHOLINESTERASE INHIBITOR, PHARMACEUTICAL COMPOSITION CONTAINING SAME AND USE THEREOF IN THE TREATMENT OF COGNITIVE DISORDERS” (priority 2008, published 2011):

System: rats with no deficit
Assay: Test for spontaneous forgetting in rats with no deficit (object recognition test, visual episodic memory)
Type: in vivo
Details: rat, p.o. 60 min before session; group 2: 0.1 mg/kg; group 3: rivastigmine 0.03 mg/kg; group 4: 0.01 mg/kg + rivastigmine 0.03 mg/kg (base equivalent); 2 min session
Method: 1. Test for Spontaneous Forgetting in Rats with No Deficit
1.) Accustomization phase: In this protocol, the animals are first subjected to a session of accustomization to the environmental context (a wooden chamber of 65×45×45 cm) for a period of 2 minutes. The time spent in active locomotion is measured using a timer. 2.) Learning phase: 24 hours later, two exactly identical objects (either metal triangles or pyramids made of Lego) are placed in the experimental device. Each rat is placed in the middle of the chamber, the nose against the wall opposite that where the objects/stimulus are located. The pairs of objects presented are alternated equitably in each of the groups of rats. The animals are left in the experimental chamber until they reach a period of exploration of the two objects equal to 20 seconds, out of a maximum period of 3 minutes. As soon as the 20 seconds of exploration are reached, the rat is put back in its housing cage. […] 3.) Recalling session: The recalling session takes place after a forgetting period of 24 h for all the groups. […]
This test lasts 3 minutes, during which the time spent exploring each of the 2 objects is measured. […]
For the learning and recalling sessions, the exploring of an object is counted if the animal orients its nose toward the object, inside a perimeter of 2 centimeters around said object, or if it touches it with its nose or with its feet. […]

SMILES	Locomotion (time spent in locomotion during the first accustomization session)
O=C(O)/C=C/C(=O)O.O=C(Oc1ccc(Br)cc1)N1CCN2CCC1CC2 [4-bromophenyl 1,4-diazabicyclo[3.2.2]nonane-4-carboxylate (2E)-but-2-enedioate]	21.15 ± 1.14 s
CCN(C)C(=O)Oc1cccc([C@H](C)N(C)C)c1 [rivastigmine]	24.94 ± 2.38 s
